According to article PMC9133112, “The structural basis of Cdc7-Dbf4 kinase dependent targeting and phosphorylation of the MCM2-7 double hexamer” (Nature Communications, 2022):
No constants are given. Whether binding was seen depends on the method and setting. Some results given as binding are weak or reduced against the parent protein; the word gives no strength.

By UniProt entry, the sequences of proteins in these tests, tags left out. Where a name states a change or a piece, a line headed by the entry shows the natural chain unless it says otherwise.
UniProt P29469: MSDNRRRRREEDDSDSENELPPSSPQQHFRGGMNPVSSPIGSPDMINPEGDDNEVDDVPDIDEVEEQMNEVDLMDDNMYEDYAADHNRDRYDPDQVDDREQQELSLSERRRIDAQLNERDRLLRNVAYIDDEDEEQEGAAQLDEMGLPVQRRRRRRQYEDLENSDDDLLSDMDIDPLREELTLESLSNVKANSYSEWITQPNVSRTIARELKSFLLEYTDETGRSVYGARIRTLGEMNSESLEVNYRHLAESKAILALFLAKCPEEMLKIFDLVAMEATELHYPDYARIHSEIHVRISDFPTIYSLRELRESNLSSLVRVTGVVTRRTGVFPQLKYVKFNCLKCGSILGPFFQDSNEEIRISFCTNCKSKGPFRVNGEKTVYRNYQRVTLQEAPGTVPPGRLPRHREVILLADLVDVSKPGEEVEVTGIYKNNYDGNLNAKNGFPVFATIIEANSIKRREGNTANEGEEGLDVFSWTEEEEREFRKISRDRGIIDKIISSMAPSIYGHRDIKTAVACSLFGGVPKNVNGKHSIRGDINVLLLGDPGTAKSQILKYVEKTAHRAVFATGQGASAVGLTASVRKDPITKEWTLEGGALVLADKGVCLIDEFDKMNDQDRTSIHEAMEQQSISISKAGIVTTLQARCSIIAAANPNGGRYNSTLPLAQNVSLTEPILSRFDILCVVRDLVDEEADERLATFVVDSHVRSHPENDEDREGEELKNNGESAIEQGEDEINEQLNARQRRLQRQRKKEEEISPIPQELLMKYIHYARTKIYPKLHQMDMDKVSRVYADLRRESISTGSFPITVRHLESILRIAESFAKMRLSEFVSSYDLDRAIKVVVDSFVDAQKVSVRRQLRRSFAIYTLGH
UniProt P24279: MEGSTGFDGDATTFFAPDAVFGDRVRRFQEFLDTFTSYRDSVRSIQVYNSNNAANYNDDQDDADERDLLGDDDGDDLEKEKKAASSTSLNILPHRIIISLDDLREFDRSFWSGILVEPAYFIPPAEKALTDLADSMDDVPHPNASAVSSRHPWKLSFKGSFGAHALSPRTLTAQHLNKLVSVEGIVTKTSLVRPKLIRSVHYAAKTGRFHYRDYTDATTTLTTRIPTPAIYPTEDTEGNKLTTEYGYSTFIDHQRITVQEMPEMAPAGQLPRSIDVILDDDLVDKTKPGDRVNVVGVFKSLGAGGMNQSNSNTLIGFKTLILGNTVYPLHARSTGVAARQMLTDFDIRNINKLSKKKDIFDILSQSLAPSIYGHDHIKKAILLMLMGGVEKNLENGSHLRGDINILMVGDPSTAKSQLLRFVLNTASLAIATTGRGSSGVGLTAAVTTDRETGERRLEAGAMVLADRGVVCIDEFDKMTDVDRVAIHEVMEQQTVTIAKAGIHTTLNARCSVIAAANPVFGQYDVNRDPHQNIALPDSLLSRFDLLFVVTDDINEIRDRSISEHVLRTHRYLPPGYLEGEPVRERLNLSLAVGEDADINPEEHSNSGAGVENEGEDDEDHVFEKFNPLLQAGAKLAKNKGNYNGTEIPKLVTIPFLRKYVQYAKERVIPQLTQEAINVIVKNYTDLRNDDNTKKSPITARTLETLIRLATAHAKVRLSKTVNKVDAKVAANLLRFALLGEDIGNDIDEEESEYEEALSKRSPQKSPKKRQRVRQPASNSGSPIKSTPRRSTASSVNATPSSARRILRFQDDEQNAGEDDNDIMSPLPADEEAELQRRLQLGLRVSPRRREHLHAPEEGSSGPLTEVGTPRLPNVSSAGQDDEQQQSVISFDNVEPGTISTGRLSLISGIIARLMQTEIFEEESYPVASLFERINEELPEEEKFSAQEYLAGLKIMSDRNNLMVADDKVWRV
UniProt P30665: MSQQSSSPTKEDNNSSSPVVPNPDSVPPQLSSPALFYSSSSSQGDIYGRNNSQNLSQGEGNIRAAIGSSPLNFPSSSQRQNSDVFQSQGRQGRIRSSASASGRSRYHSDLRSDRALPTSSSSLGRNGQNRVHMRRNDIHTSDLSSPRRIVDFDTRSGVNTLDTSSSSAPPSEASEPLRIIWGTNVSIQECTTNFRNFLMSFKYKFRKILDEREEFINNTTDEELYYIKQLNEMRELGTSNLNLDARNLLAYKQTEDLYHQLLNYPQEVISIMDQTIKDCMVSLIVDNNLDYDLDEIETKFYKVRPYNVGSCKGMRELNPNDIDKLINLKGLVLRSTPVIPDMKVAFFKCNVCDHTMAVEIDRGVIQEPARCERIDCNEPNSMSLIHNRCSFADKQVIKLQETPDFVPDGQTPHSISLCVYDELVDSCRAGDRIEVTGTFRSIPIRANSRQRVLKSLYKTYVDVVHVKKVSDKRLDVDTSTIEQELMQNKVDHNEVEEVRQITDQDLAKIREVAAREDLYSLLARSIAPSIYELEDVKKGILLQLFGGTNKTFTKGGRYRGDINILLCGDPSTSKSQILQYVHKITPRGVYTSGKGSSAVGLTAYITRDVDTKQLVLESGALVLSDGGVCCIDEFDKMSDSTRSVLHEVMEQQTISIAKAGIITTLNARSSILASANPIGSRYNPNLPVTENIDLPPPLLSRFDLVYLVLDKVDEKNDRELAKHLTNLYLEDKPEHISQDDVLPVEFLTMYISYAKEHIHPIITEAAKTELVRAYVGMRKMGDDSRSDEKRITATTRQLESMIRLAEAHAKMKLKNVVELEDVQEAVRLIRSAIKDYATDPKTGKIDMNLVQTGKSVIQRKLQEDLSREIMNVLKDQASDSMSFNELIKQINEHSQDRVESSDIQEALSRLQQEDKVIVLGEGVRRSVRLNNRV
UniProt P29496: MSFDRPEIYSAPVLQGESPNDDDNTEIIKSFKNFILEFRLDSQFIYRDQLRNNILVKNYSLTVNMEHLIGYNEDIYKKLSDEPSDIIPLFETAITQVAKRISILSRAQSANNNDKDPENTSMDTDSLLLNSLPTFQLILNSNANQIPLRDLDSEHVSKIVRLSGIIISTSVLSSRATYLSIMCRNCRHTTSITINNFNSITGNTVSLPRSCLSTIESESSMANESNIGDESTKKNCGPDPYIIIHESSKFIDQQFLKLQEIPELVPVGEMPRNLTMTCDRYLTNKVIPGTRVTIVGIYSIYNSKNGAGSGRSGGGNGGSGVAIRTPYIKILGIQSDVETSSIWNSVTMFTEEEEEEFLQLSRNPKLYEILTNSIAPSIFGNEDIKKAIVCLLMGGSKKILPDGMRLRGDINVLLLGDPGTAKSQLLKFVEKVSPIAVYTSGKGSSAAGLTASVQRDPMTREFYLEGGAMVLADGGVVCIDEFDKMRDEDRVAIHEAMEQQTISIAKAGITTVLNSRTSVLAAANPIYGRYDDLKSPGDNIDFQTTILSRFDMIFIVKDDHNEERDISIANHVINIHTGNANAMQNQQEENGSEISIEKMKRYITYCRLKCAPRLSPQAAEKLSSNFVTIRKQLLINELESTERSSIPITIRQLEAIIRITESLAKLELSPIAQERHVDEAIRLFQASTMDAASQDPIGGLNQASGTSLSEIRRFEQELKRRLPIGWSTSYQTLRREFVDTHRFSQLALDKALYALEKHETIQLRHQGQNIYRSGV
UniProt P53091: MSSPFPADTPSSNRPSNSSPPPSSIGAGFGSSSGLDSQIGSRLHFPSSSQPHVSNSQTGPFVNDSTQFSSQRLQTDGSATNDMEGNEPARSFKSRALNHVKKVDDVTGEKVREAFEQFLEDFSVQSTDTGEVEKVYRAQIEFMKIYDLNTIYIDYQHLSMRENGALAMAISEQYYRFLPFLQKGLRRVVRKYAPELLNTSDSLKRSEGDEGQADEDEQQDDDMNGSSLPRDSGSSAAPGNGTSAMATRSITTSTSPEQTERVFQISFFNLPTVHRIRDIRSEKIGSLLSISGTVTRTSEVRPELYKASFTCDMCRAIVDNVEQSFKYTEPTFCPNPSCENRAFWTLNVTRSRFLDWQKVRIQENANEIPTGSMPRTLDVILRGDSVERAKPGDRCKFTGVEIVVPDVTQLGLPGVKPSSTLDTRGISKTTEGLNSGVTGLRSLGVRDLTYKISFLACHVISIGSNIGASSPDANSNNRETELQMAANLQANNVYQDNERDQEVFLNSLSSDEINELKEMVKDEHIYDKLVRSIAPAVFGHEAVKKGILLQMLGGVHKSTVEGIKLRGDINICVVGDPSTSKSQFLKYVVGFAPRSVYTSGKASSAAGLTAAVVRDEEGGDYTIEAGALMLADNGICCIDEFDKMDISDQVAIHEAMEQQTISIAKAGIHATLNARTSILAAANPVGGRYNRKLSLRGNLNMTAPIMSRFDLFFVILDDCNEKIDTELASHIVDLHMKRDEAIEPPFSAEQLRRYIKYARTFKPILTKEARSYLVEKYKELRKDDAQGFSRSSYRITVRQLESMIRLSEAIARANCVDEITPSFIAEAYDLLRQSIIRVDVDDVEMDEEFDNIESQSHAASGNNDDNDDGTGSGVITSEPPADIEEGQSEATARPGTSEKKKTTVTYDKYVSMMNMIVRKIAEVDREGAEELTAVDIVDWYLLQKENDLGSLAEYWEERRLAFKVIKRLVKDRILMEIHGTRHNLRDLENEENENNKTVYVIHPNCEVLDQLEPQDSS
UniProt P38132: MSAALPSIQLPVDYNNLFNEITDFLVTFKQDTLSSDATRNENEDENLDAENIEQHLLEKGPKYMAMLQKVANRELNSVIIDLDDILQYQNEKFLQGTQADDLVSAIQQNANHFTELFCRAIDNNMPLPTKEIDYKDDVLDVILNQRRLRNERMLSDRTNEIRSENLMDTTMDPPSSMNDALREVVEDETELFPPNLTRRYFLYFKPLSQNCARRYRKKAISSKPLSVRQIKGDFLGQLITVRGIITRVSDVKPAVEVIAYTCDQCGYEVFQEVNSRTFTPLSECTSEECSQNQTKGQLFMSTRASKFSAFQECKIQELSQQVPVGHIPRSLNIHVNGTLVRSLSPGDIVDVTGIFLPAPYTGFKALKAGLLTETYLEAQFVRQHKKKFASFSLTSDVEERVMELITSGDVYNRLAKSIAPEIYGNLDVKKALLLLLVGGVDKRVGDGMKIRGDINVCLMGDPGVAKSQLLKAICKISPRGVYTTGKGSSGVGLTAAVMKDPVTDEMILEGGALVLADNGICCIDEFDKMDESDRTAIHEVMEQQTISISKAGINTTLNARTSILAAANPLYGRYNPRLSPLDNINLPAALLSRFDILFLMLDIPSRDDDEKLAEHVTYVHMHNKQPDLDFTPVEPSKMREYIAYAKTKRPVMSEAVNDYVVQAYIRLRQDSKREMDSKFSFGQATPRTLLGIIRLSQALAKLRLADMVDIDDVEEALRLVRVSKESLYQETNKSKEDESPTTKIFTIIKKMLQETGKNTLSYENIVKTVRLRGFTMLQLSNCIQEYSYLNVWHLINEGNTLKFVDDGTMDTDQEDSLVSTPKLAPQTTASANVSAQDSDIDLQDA
UniProt P06243: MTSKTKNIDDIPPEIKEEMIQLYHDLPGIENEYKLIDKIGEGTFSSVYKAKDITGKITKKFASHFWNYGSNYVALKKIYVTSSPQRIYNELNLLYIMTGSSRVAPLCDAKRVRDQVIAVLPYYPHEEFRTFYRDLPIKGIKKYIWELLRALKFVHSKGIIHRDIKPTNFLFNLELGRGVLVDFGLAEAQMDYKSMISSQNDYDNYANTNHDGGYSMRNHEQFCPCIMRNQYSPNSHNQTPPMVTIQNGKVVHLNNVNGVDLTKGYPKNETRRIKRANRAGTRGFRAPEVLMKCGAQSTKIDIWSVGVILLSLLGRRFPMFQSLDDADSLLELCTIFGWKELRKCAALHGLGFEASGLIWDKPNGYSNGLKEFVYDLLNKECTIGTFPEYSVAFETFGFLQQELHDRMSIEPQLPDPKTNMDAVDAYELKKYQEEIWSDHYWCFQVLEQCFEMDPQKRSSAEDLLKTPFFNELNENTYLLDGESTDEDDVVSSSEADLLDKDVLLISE

Assays:
[1] = molecular target: T1, MCM2-7 double hexamer (Saccharomyces cerevisiae) (UniProt P29469+P24279+P30665+P29496+P53091+P38132); experiment: pull-down; DH-DDK interaction assay: DH assembled on 10xARS DNA-beads, high salt washed, 50 nM DDK added 30 min 24 °C in pre-RC buffer (3 mM ATP), washed, eluted by DNase I, SDS-PAGE; both purified
[2] = molecular target: T1, MCM2-7 double hexamer (Saccharomyces cerevisiae); experiment: pull-down; DH-DDK interaction assay: DH assembled on 10xARS DNA-beads, high salt washed, 150 nM DDK added 30 min 24 °C in pre-RC buffer (3 mM ATP), washed, eluted by DNase I, SDS-PAGE; both purified
[3] = molecular target: T1, MCM2-7 double hexamer (Saccharomyces cerevisiae); experiment: pull-down; DH-DDK interaction assay on DNA-beads with different DDK protein and salt concentrations (Fig. 2f; values only in the figure); both purified
[4] = molecular target: T1, MCM2-7 double hexamer (Saccharomyces cerevisiae); experiment: pull-down; bead-based origin assembly assay at 24 °C (Supplementary Fig. 1g); DDK concentration not given; both purified
[5] = molecular target: T1, MCM2-7 double hexamer (Saccharomyces cerevisiae); experiment: cryo-EM structure; MD-(ADP:BeF3): 250 nM DH + 750 nM DDK, buffer C with ADP:BeFx (3 mM ADP, 15 mM NaF, 3 mM BeCl2); GraFix; state I and swiveled states; both purified
[6] = molecular target: T1, MCM2-7 double hexamer (Saccharomyces cerevisiae); experiment: co-sedimentation; 15–45% glycerol gradient without glutaraldehyde, 250 nM DH + 750 nM DDK, buffer C with nucleotide, 16 h at 4 °C; fractions analysed by SDS-PAGE; both purified
[7] = molecular target: T1, MCM2-7 double hexamer (Saccharomyces cerevisiae); experiment: cryo-EM structure; MD-(ATP) with DNA: DH on beads phosphorylated by 400 nM DDK 30 min 24 °C with ATP, eluted by AluI, crosslinked at once with 0.1% glutaraldehyde; both purified
[8] = molecular target: T1, MCM2-7 double hexamer (Saccharomyces cerevisiae); experiment: cryo-EM structure; MD-(ATPγS): 250 nM DH released from beads by AluI + 750 nM DDK, 10 min 24 °C, buffer C with 3 mM ATPγS; GraFix glycerol gradient with glutaraldehyde; states I-III; both purified

| Substance | binding [1] | binding [2] | binding [3] | binding [4] | binding [5] | binding [6] | binding [7] | binding [8] |
| --- | --- | --- | --- | --- | --- | --- | --- | --- |
| DDK with Dbf4 Δ110 (from UniProt P06243 1-507; P32325 1-704) (complex) | binds | binds | – | – | – | – | – | – |
| DDK with Dbf4 Δ220 (from UniProt P06243 1-507; P32325 1-704) (complex) | no binding (tested: 50 nM DDK) | no binding (tested: 150 nM DDK) | no binding | – | – | – | – | – |
| DDK with Dbf4 Δmotif N (from UniProt P06243 1-507; P32325 1-704) (complex) | – | binds | – | – | – | – | – | – |
| Dbf4-dependent Cdc7 kinase (DDK), wild type (from UniProt P06243 1-507; P32325 1-704) (complex) | binds | binds | – | binds | binds | binds | binds | binds |
